Measured values as given in patent US10064928B2, “Peptides and combination of peptides for use in immunotherapy against CLL and other cancers” (IMMATICS BIOTECHNOLOGIES GMBH, priority 2015, dated 2018).
For some of these results: Expression grades refer to the transcript from which the peptide derives; gene names, where given, were looked up from the sequence.

Key:
[1] = test system: CLL samples compared to a panel of normal tissues; test: Identification and label-free relative LC-MS quantitation of HLA-presented peptides (presentation profiles and scores); parameters: species or system human; key: very highly over-presented on tumors compared to a panel of normal tissues (+++); highly over-presented on tumors compared to a panel of normal tissues (++); over-presented on tumors compared to a panel of normal tissues (+); conditions: presentation score; over-presentation on tumors (CLL samples) compared to a panel of normal tissues
[2] = test system: other tumor types (e.g. non-Hodgkin lymphoma, lung cancer); test: Presentation of the peptides on additional tumor types (LC-MS, Tables 4A/4B, FIG. 1); parameters: species or system human; conditions: for Other relevant organs/diseases: Table 4A: additional tumor types where the peptide was over-presented on more than 5% of the measured tumor samples, or presented on more than 5% with ratio of geometric means tumor vs normal tissues larger than 3
NSCLC tumor samples = test: Absolute quantitation of TUMAP copies per cell by nanoLC-MS/MS; parameters: species or system human; conditions: median number of copies per cell
[3] = test system: mRNA of source genes in tumors compared to a panel of normal tissues; test: Expression profiling of source genes by RNAseq (expression scores); parameters: species or system human; key: very highly over-expressed in tumors compared to a panel of normal tissues (+++); highly over-expressed in tumors compared to a panel of normal tissues (++); over-expressed in tumors compared to a panel of normal tissues (+); conditions: expression score of the source gene, tumors vs panel of normal tissues

Substance | Peptide Presentation [1] | Other relevant organs/diseases [2] | Copy Number Category (NSCLC tumor samples) | Gene Expression [3] | Additional Entities ([2]; Table 4B: additional tumour types with over-presentation (including specific presentation) on more than 5% of the measured tumour samples, or presentation on more than 5% with ratio of geometric means tumour vs normal tissues larger than 3, extended normal tissue panel)
153 (SLLAELHVL; listed as Homo sapiens) [compound 153] | ++ | NHL | ++ (>=100 = ++) |  | 
380: peptide found in SYK (gene looked up) (YLDRKLLTL; listed as Homo sapiens) [compound 380] | + | NHL |  | ++ | 
74: peptide found in TLR9 (gene looked up) (GLLRASFLL; listed as Homo sapiens) [compound 74] | +++ | NHL, AML, BRCA |  | ++ | 
62 (GIIDGSPRL; listed as Homo sapiens) [compound 62] | + | NHL | + (<100 = +) |  | 
286: peptide found in FANCD2 (gene looked up) (FLLEDLSQKL; listed as Homo sapiens) [compound 286] | +++ | NHL |  | ++ | Uterine Cancer
116: peptide found in NUP210 (gene looked up) (LLIGATMQV; listed as Homo sapiens) [compound 116] | +++ | SCLC, NHL, AML |  | + | 
